USRE30451E, “Novel process for producing antibiotics bleomycin” (priority 1969, dated 1980)

What follows are compounds tested on Ehrlich ascites carcinoma cells. Settings: higher = less toxic and more effective.
`Cc1c(N)nc([C@H](CC(N)=O)NC[C@H](N)C(N)=O)nc1C(=O)N[C@H](C(=O)N[C@H](C)[C@@H](O)[C@H](C)C(=O)N[C@H](C(=O)NCCc1nc(-c2nc(C(=O)NCCCCN=C(N)N)cs2)cs1)[C@@H](C)O)[C@@H](O[C@@H]1O[C@@H](CO)[C@@H](O)[C@H](O)[C@@H]1O[C@H]1O[C@H](CO)[C@@H](O)[C@H](OC(N)=O)[C@@H]1O)c1cnc[nH]1` [Compound 3, Bleomycin B2, reference compound] was tested, and the “LD50 /ED50 Index” value was 10. In the case of `Cc1c(N)nc([C@H](CC(N)=O)NC[C@H](N)C(N)=O)nc1C(=O)N[C@H](C(=O)N[C@H](C)[C@@H](O)[C@H](C)C(=O)N[C@H](C(=O)NCCc1nc(-c2nc(C(=O)NCCCNCCCCN)cs2)cs1)[C@@H](C)O)[C@@H](O[C@@H]1O[C@@H](CO)[C@@H](O)[C@H](O)[C@@H]1O[C@@H]1O[C@H](CO)[C@@H](O)[C@H](OC(N)=O)[C@@H]1O)c1cnc[nH]1` [Compound 7, Bleomycin A5, reference compound], the “LD50 /ED50 Index” value is reported as 79. With `Cc1c(N)nc(C(CC(N)=O)NCC(N)C(N)=O)nc1C(=O)NC(C(=O)NC(C)C(O)C(C)C(=O)NC(C(=O)NCCc1nc(-c2nc(C(=O)NCCN(C)C)cs2)cs1)C(C)O)C(OC1OC(CO)C(O)C(O)C1OC1OC(CO)C(O)C(OC(N)=O)C1O)c1cnc[nH]1` (stereo not drawn) [Compound 9, 3-N,N-dimethylaminoethylamino-bleomycin] the “LD50 /ED50 Index” value was 8. For `CCN(CC)CCCNC(=O)c1csc(-c2csc(CCNC(=O)C(NC(=O)C(C)C(O)C(C)NC(=O)C(NC(=O)c3nc(C(CC(N)=O)NCC(N)C(N)=O)nc(N)c3C)C(OC3OC(CO)C(O)C(O)C3OC3OC(CO)C(O)C(OC(N)=O)C3O)c3cnc[nH]3)C(C)O)n2)n1` (stereo not drawn) [Compound 11, 3,-N,N-diethylaminopropylamino-bleomycin], the “LD50 /ED50 Index” value was 35. With `CCCCNCCCNCCCNC(=O)c1csc(-c2csc(CCNC(=O)C(NC(=O)C(C)C(O)C(C)NC(=O)C(NC(=O)c3nc(C(CC(N)=O)NCC(N)C(N)=O)nc(N)c3C)C(OC3OC(CO)C(O)C(O)C3OC3OC(CO)C(O)C(OC(N)=O)C3O)c3cnc[nH]3)C(C)O)n2)n1` (stereo not drawn) [Compound 12, 3-(3-N-butyl-aminopropyl)-aminopropylamino-bleomycin] the “LD50 /ED50 Index” value was 59. For `Cc1c(N)nc(C(CC(N)=O)NCC(N)C(N)=O)nc1C(=O)NC(C(=O)NC(C)C(O)C(C)C(=O)NC(C(=O)NCCc1nc(-c2nc(C(=O)NCCNCC(C)O)cs2)cs1)C(C)O)C(OC1OC(CO)C(O)C(O)C1OC1OC(CO)C(O)C(OC(N)=O)C1O)c1cnc[nH]1` (stereo not drawn) [Compound 13, 2-(2-hydroxypropyl)-aminoethylamino-bleomycin], the “LD50 /ED50 Index” value was 21. `Cc1c(N)nc(C(CC(N)=O)NCC(N)C(N)=O)nc1C(=O)NC(C(=O)NC(C)C(O)C(C)C(=O)NC(C(=O)NCCc1nc(-c2nc(C(=O)NCCCN3CCNCC3)cs2)cs1)C(C)O)C(OC1OC(CO)C(O)C(O)C1OC1OC(CO)C(O)C(OC(N)=O)C1O)c1cnc[nH]1` (stereo not drawn) [Compound 14, 3-(piperazino)propylamino-bleomycin] was tested, and the “LD50 /ED50 Index” value was 14. For `Cc1c(N)nc(C(CC(N)=O)NCC(N)C(N)=O)nc1C(=O)NC(C(=O)NC(C)C(O)C(C)C(=O)NC(C(=O)NCCc1nc(-c2nc(C(=O)NCCCNCCCNC(C)c3ccccc3)cs2)cs1)C(C)O)C(OC1OC(CO)C(O)C(O)C1OC1OC(CO)C(O)C(OC(N)=O)C1O)c1cnc[nH]1` (stereo not drawn) [Compound 15], the “LD50 /ED50 Index” value was 34. With `Cc1c(N)nc(C(CC(N)=O)NCC(N)C(N)=O)nc1C(=O)NC(C(=O)NC(C)C(O)C(C)C(=O)NC(C(=O)NCCc1nc(-c2nc(C(=O)NCC(C)N)cs2)cs1)C(C)O)C(OC1OC(CO)C(O)C(O)C1OC1OC(CO)C(O)C(OC(N)=O)C1O)c1cnc[nH]1` (stereo not drawn) [Compound 16, 2-aminopropylamino-bleomycin] the “LD50 /ED50 Index” value was 5. In the case of `CNCCCNC(=O)c1csc(-c2csc(CCNC(=O)C(NC(=O)C(C)C(O)C(C)NC(=O)C(NC(=O)c3nc(C(CC(N)=O)NCC(N)C(N)=O)nc(N)c3C)C(OC3OC(CO)C(O)C(O)C3OC3OC(CO)C(O)C(OC(N)=O)C3O)c3cnc[nH]3)C(C)O)n2)n1` (stereo not drawn) [Compound 17, 3-N-methylaminopropylamino-bleomycin], the “LD50 /ED50 Index” value is reported as 14. With `Cc1c(N)nc(C(CC(N)=O)NCC(N)C(N)=O)nc1C(=O)NC(C(=O)NC(C)C(O)C(C)C(=O)NC(C(=O)NCCc1nc(-c2nc(C(=O)NCCCN(C)C)cs2)cs1)C(C)O)C(OC1OC(CO)C(O)C(O)C1OC1OC(CO)C(O)C(OC(N)=O)C1O)c1cnc[nH]1` (stereo not drawn) [Compound 19, 3-(N,N-dimethyl)-aminopropylamino-bleomycin] the “LD50 /ED50 Index” value was 20. In the case of `Cc1c(N)nc(C(CC(N)=O)NCC(N)C(N)=O)nc1C(=O)NC(C(=O)NC(C)C(O)C(C)C(=O)NC(C(=O)NCCc1nc(-c2nc(C(=O)NCCC[N+](C)(C)C)cs2)cs1)C(C)O)C(OC1OC(CO)C(O)C(O)C1OC1OC(CO)C(O)C(OC(N)=O)C1O)c1cnc[nH]1` (stereo not drawn) [Compound 20, 3-(N,N,N-trimethyl)-aminopropylamino-bleomycin], the “LD50 /ED50 Index” value is reported as 35. With `Cc1c(N)nc(C(CC(N)=O)NCC(N)C(N)=O)nc1C(=O)NC(C(=O)NC(C)C(O)C(C)C(=O)NC(C(=O)NCCc1nc(-c2nc(C(=O)NCCCNCCCN(C)C)cs2)cs1)C(C)O)C(OC1OC(CO)C(O)C(O)C1OC1OC(CO)C(O)C(OC(N)=O)C1O)c1cnc[nH]1` (stereo not drawn) [Compound 21] the “LD50 /ED50 Index” value was 54. In the case of `Cc1c(N)nc(C(CC(N)=O)NCC(N)C(N)=O)nc1C(=O)NC(C(=O)NC(C)C(O)C(C)C(=O)NC(C(=O)NCCc1nc(-c2nc(C(=O)NCCCN(C)CCCN)cs2)cs1)C(C)O)C(OC1OC(CO)C(O)C(O)C1OC1OC(CO)C(O)C(OC(N)=O)C1O)c1cnc[nH]1` (stereo not drawn) [Compound 22, 3-[N-methyl-N-(3-aminopropyl)]-aminopropylamino-bleomycin], the “LD50 /ED50 Index” value is reported as 48. `Cc1c(N)nc(C(CC(N)=O)NCC(N)C(N)=O)nc1C(=O)NC(C(=O)NC(C)C(O)C(C)C(=O)NC(C(=O)NCCc1nc(-c2nc(C(=O)NCCCN3CCCC3)cs2)cs1)C(C)O)C(OC1OC(CO)C(O)C(O)C1OC1OC(CO)C(O)C(OC(N)=O)C1O)c1cnc[nH]1` (stereo not drawn) [Compound 24, 3-(pyrrolidino)-propylamino-bleomycin] was tested, and the “LD50 /ED50 Index” value was 19. In the case of `Cc1c(N)nc(C(CC(N)=O)NCC(N)C(N)=O)nc1C(=O)NC(C(=O)NC(C)C(O)C(C)C(=O)NC(C(=O)NCCc1nc(-c2nc(C(=O)NCCCN3CCCCC3)cs2)cs1)C(C)O)C(OC1OC(CO)C(O)C(O)C1OC1OC(CO)C(O)C(OC(N)=O)C1O)c1cnc[nH]1` (stereo not drawn) [Compound 25, 3-(piperidino)-propylamino-bleomycin], the “LD50 /ED50 Index” value is reported as 14. With `Cc1c(N)nc(C(CC(N)=O)NCC(N)C(N)=O)nc1C(=O)NC(C(=O)NC(C)C(O)C(C)C(=O)NC(C(=O)NCCc1nc(-c2nc(C(=O)NCCCN3CCOCC3)cs2)cs1)C(C)O)C(OC1OC(CO)C(O)C(O)C1OC1OC(CO)C(O)C(OC(N)=O)C1O)c1cnc[nH]1` (stereo not drawn) [Compound 26, 3-(morpholino)-propylamoni-bleomycin] the “LD50 /ED50 Index” value was 18. `Cc1c(N)nc(C(CC(N)=O)NCC(N)C(N)=O)nc1C(=O)NC(C(=O)NC(C)C(O)C(C)C(=O)NC(C(=O)NCCc1nc(-c2nc(C(=O)NCCCN3CCN(CCCN)CC3)cs2)cs1)C(C)O)C(OC1OC(CO)C(O)C(O)C1OC1OC(CO)C(O)C(OC(N)=O)C1O)c1cnc[nH]1` (stereo not drawn) [Compound 28, 3-[1-{4-(3-aminopropyl)}-piperazino]propylamino-bleomycin] was tested, and the “LD50 /ED50 Index” value was 46.
